Test results: PubChem BioAssay AID248 (DTP/NCI, 2004)
The list is a part of this screen's results and no random one: it is rich in T/C values a quarter to a half above the control, in often repeated tests (any T/C) and in doses without a T/C. Other doses and runs of a compound stand elsewhere. T/C: endpoint of the treated group in % of that of the vehicle group. Some entries give survivors of the animals treated and no T/C: the source files T/C as zero there, which appears to mark a toxic dose or a test without result, not a measured value. Some doses without a T/C left all or most animals alive at the check, yet need not have been tolerated: the source hardly ever lists a survival T/C far under the control, and the zero likely stands for such cases as well. Counts of survivors are from the toxicity check (mostly the fifth day) where no day follows; animals may have died later. Schedule codes are those of the source, read here as Q, the interval in days (D) or hours (H), X, the number of doses. Some doses were run more than once; their values stand side by side, smallest first. Some schedule codes hold Z or #, which are not explained here. Where survival is the endpoint, the PubChem record calls one and a half times the control and up active, and a quarter to a half above the control has no call in these data; cut-offs in other NCI protocols can differ. Some T/C values carry the count of animals alive at the toxicity check (mostly the fifth day); without a count, all were alive then.

Tested on: L1210 leukemia ip in BDF1 mice, survival T/C
Assay: NCI In Vivo Anticancer Drug Screen. Data for tumor model L1210 Leukemia (intraperitoneal) in B6D2F1 (BDF1) mice
Details: T/C endpoint: mean survival time, higher T/C = longer survival
[1] = dose: 400.0 mg/kg/injection, schedule: Q01DX001 (ip), vehicle: carboxymethylcellulose (CMC)
[2] = dose: 400.0 mg/kg/injection, schedule: Q04DX002 (ip), vehicle: Klucel (hydroxypropylcellulose) (HPC)
[3] = dose: 400.0 mg/kg/injection, schedule: Q01DX009 (ip), vehicle: Klucel (hydroxypropylcellulose) (HPC)
[4] = dose: 300.0 mg/kg/injection, schedule: Q01DX001 (ip), vehicle: other
[5] = dose: 200.0 mg/kg/injection, schedule: Q04DX003 (ip), vehicle: Klucel (hydroxypropylcellulose) (HPC)
[6] = dose: 400.0 mg/kg/injection, schedule: Q04DX003 (ip), vehicle: saline with Tween-80
[7] = dose: 400.0 mg/kg/injection, schedule: Q04DX002 (ip), vehicle: saline
[8] = dose: 100.0 mg/kg/injection, schedule: Q04DX003 (ip), vehicle: saline with Tween-80
[9] = dose: 200.0 mg/kg/injection, schedule: Q04DX003 (ip), vehicle: saline with Tween-80
[10] = dose: 100.0 mg/kg/injection, schedule: Q01DX009 (ip), vehicle: saline with Tween-80
[11] = dose: 400.0 mg/kg/injection, schedule: Q04DX003 (ip), vehicle: saline
[12] = dose: 40.0 mg/kg/injection, schedule: Q01DX001 (ip), vehicle: saline
[13] = dose: 400.0 mg/kg/injection, schedule: Q01DX001 (ip), vehicle: Klucel (hydroxypropylcellulose) (HPC)

With `COc1cc(N(CCCl)CCCl)c(OC)cc1/C=N\Nc1nncn1N` the T/C (dose: 5.0 mg/kg/injection, schedule: Q01DX015 (ip), vehicle: carboxymethylcellulose (CMC)) was 120, 125, 127, 129 % of control [5 of 6 alive], the T/C (dose: 9.0 mg/kg/injection, schedule: Q01DX015 (ip), vehicle: carboxymethylcellulose (CMC)) was 130 and 132 % of control and the T/C (dose: 22.0 mg/kg/injection, schedule: Q01DX001 (ip), vehicle: carboxymethylcellulose (CMC)) was 132 % of control. For the same compound, the survivor count (dose: 25.0 mg/kg/injection, schedule: Q01DX015 (ip), vehicle: carboxymethylcellulose (CMC)) was 1 of 6 and 6 of 6, the T/C (dose: 50.0 mg/kg/injection, schedule: Q01DX001 (ip), vehicle: carboxymethylcellulose (CMC)) was 132 [3 of 4 alive] and 149 % of control and the survivor count (dose: 75.0 mg/kg/injection, schedule: Q01DX001 (ip), vehicle: carboxymethylcellulose (CMC)) was 1 of 4. For the same compound, the survivor count (dose: 200.0 mg/kg/injection, schedule: Q01DX001 (ip), vehicle: carboxymethylcellulose (CMC)) was 0 of 4 and the survivor count [1] was 0 of 4.

`CCN(CC)CCOCC(=O)Nc1c(C)cccc1Cl` was tested, and the survivor count (dose: 400.0 mg/kg/injection, schedule: Q04DX003 (ip), vehicle: saline sonified) was 0 of 6.

With `CC(C)Nc1ccc(O)cc1` the survivor count [2] was 3 of 3.

`O=S1(=O)C=C(Br)c2ccccc21` was tested, and the survivor count [3] was 0 of 6.

For `CC#C[P+](Cc1ccccc1)(c1ccccc1)c1ccccc1`, the survivor count (dose: 38.0 mg/kg/injection, schedule: Q01DX001 (ip), vehicle: saline) was 3 of 6, the survivor count (dose: 75.0 mg/kg/injection, schedule: Q01DX001 (ip), vehicle: other) was 0 of 6 and the survivor count (dose: 150.0 mg/kg/injection, schedule: Q01DX001 (ip), vehicle: other) was 0 of 6. The survivor count [4] was 0 of 6.

For `CC(=O)OC(OC(C)=O)c1ccc([N+](=O)[O-])o1`, the survivor count [5] was 5 of 6 and the survivor count (dose: 400.0 mg/kg/injection, schedule: Q04DX003 (ip), vehicle: Klucel (hydroxypropylcellulose) (HPC)) was 0 of 6.

`O=C(Nc1ccccc1-c1ccc([N+](=O)[O-])cc1)c1cc(Cl)cc(Cl)c1` was tested, and the survivor count [6] was 6 of 6.

`COc1ccc(OC)c(NC(=O)CS)c1` was tested, and the survivor count [6] was 4 of 6.

With `C#CCN(CC#C)C(C)=O` the survivor count [7] was 0 of 3.

For `CC1=COC(C)(C2NC(C)CC(C)(C)N2)CC1` (stereo unspecified), the survivor count (dose: 66.0 mg/kg/injection, schedule: Q01DX Z (ip), vehicle: methylcellulose (MC)) was 3 of 6.

In the case of `COC1=C2C=[N+](C)C3C(=C2C=CC1OC)Cc1cc2c(cc13)OCO2` (stereo unspecified), the survivor count [1] is reported as 2 of 4.

`CCN(CC)CCCNCC(Cc1ccccc1)c1ccccc1` (stereo unspecified) was tested, and the survivor count [7] was 1 of 3.

`CCN(CC)CCOC(=O)C(c1ccccc1)c1ccccc1` was tested, and the survivor count (dose: 300.0 mg/kg/injection, schedule: Q01DX001 (ip), vehicle: saline) was 2 of 6.

In the case of `CC(=O)NC1CC2CCCN3CCCC(C1)C23` (stereo unspecified), the survivor count [8] is reported as 3 of 6, the survivor count [9] is reported as 0 of 6 and the survivor count [6] is reported as 0 of 6.

In the case of `c1cnc2c(c1)ccc1ncccc12`, the survivor count [10] is reported as 1 of 6, the survivor count (dose: 200.0 mg/kg/injection, schedule: Q01DX009 (ip), vehicle: saline with Tween-80) is reported as 0 of 6 and the survivor count (dose: 400.0 mg/kg/injection, schedule: Q01DX009 (ip), vehicle: saline with Tween-80) is reported as 0 of 6.

`O=C(NC(NC(=O)c1ccc(Cl)cc1)C(Cl)(Cl)Cl)c1ccc(Cl)cc1` was tested, and the survivor count [9] was 6 of 6 and the survivor count [6] was 6 of 6.

In the case of `COC(CBr)OC`, the survivor count [8] is reported as 0 of 6 and 1 of 6, the survivor count [9] is reported as 0 of 6 and the survivor count [6] is reported as 0 of 6.

With `COC1OC2COC(c3ccccc3)OC2C(O)C1OS(=O)(=O)c1ccc(C)cc1` (stereo unspecified) the survivor count [6] was 1 of 6.

In the case of `CCC(N)Cc1ccc(OC)c(OC)c1` (stereo unspecified), the survivor count (dose: 400.0 mg/kg/injection, schedule: Q01DX009 (ip), vehicle: saline) is reported as 0 of 6 and the survivor count [11] is reported as 1 of 6.

With `CC(C)CCCCCCCCCCCCC(=O)NCC(=O)NC1C(O)C(O)C(Nc2ncnc3nc[nH]c23)OC1C(O)CO` (stereo unspecified) the survivor count [12] was 1 of 4.

`Nc1c(Cl)ccc2c(Cl)ccnc12` was tested, and the survivor count (dose: 75.0 mg/kg/injection, schedule: Q04DX003 (ip), vehicle: other) was 6 of 6.

With `BrCC(Br)CBr` the survivor count [6] was 0 of 6.

With `COC(=O)N/N=C/c1ccc(Cl)cc1Cl` the survivor count (dose: 50.0 mg/kg/injection, schedule: Q01DX009 (ip), vehicle: Klucel (hydroxypropylcellulose) (HPC)) was 2 of 6, the survivor count (dose: 100.0 mg/kg/injection, schedule: Q01DX009 (ip), vehicle: Klucel (hydroxypropylcellulose) (HPC)) was 0 of 6 and the survivor count (dose: 100.0 mg/kg/injection, schedule: Q04DX002 (ip), vehicle: Klucel (hydroxypropylcellulose) (HPC)) was 1 of 3. The survivor count (dose: 200.0 mg/kg/injection, schedule: Q04DX002 (ip), vehicle: Klucel (hydroxypropylcellulose) (HPC)) was 0 of 3 and the survivor count [2] was 0 of 3.

For `Nc1nc(N)c2c(n1)CCP(c1ccccc1)C2` (stereo unspecified), the survivor count [8] was 3 of 5, the survivor count [9] was 0 of 6 and the survivor count [6] was 0 of 6.

For `O=C1NC(=O)N(c2ccccc2)C(=O)/C1=C/c1ccccc1`, the survivor count [13] was 0 of 6.

In the case of `CCOC(=O)C(NC(=O)C(Cc1ccc(N(CCCl)CCCl)cc1)NC(C)=O)C(C)C` (stereo unspecified), the T/C (dose: 60.0 mg/kg/injection, schedule: Q01DX009 (ip), vehicle: alcohol) is reported as 130 % of control, the survivor count (dose: 178.0 mg/kg/injection, schedule: Q01DX009 (ip), vehicle: alcohol) is reported as 2 of 6 and the survivor count (dose: 178.0 mg/kg/injection, schedule: Q01DX009 (ip), vehicle: other) is reported as 0 of 6. The T/C (dose: 200.0 mg/kg/injection, schedule: Q01DX009 (ip), vehicle: saline) was 134 % of control, the survivor count (dose: 267.0 mg/kg/injection, schedule: Q01DX009 (ip), vehicle: other) was 1 of 6 and the survivor count (dose: 400.0 mg/kg/injection, schedule: Q01DX009 (ip), vehicle: other) was 0 of 6. For the same compound, the survivor count (dose: 600.0 mg/kg/injection, schedule: Q01DX009 (ip), vehicle: other) was 0 of 6.

With `COc1ccc(NC(=O)Nc2cccc(Cl)c2C)c(OC)c1` the survivor count (dose: 400.0 mg/kg/injection, schedule: Q04DX002 (ip), vehicle: saline with Tween-80) was 3 of 3.

For `CC(C)(C)CC(C)(C)CC(C)(C)NCCCN`, the survivor count (dose: 50.0 mg/kg/injection, schedule: Q01DX009 (ip), vehicle: saline with Tween-80) was 4 of 6, the survivor count [8] was 0 of 6 and the survivor count [9] was 0 of 6. For the same compound, the survivor count [6] was 0 of 6.

For `CNC(=S)n1cnc(N)n1`, the survivor count (dose: 400.0 mg/kg/injection, schedule: Q01DX001 (ip), vehicle: saline) was 0 of 4.

`Cc1cccc[n+]1CCC(N)=O` was tested, and the survivor count (dose: 100.0 mg/kg/injection, schedule: Q04DX003 (ip), vehicle: saline) was 1 of 6, the survivor count (dose: 200.0 mg/kg/injection, schedule: Q04DX003 (ip), vehicle: saline) was 0 of 6 and the survivor count [11] was 0 of 6.

For `O=C(NCCCl)NC1CC1c1ccccc1` (stereo unspecified), the survivor count [4] was 3 of 6.

With `CO[C@H]1/C=C/O[C@@]2(C)Oc3c(C)c(O)c4c(O)c(c(/C=N/N5CCNCC5)c(O)c4c3C2=O)NC(=O)/C(C)=C\C=C\[C@H](C)[C@H](O)[C@@H](C)[C@@H](O)[C@@H](C)C(OC(C)=O)[C@@H]1C` (stereo partly specified) the survivor count [3] was 2 of 6.

`COc1c(C(C)(C)C)cc(/C=C(\NC(=O)c2ccccc2)C(=O)O)cc1C(C)(C)C` was tested, and the survivor count [13] was 0 of 3.

In the case of `COc1ccc2[nH]c3c(C)c4cc[n+](C)cc4c(C)c3c2c1`, the T/C (dose: 25.0 mg/kg/injection, schedule: Q04DX003 (ip), vehicle: saline sonified) is reported as 128 % of control and the survivor count (dose: 40.0 mg/kg/injection, schedule: Q04DX003 (ip), vehicle: saline) is reported as 5 of 6.

`Cc1ccc(S(=O)(=O)OCC(O)C2OCOC3COCOC32)cc1` (stereo unspecified) was tested, and the T/C [13] was 126 % of control.

`CC(C)(C)CC(N)=O` was tested, and the T/C [5] was 129 % of control.

In the case of `O/N=C(\Cl)c1ccc(/C(Cl)=N\O)cc1`, the survivor count [12] is reported as 2 of 4 and the survivor count (dose: 80.0 mg/kg/injection, schedule: Q01DX001 (ip), vehicle: saline) is reported as 1 of 4.

With `O=C(/C=C(\Br)c1ccccc1)c1ccccc1` the survivor count [10] was 3 of 3.
